PubChem BioAssay AID504795, Drosophila RNAi Screening Center | 2011
The reagents shown are a selection, not the whole library. 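Every listed dsRNA shows some phenotype; how reagents were selected for listing is not stated.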 A plus sign joins genes that one reagent is predicted to hit. Reagent sequences are not shown.

Screen: 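Knock-downs causing abnormal branching, bundling, swelling or growth of cultured neurons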 (primary screen)
System: primary Drosophila neurons and glia
Knock-down reagent: long dsRNA against Drosophila genes, 250 ng dsRNA per well
Timing: one week
Detection: 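GFP-labelled neurons and glia imaged live by automated microscope one week after 250 ng dsRNA per well; morphology scored by eye as descriptive phenotype terms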

The first 10 records as a preview:
| phenotype seen, replicate 1 | phenotype seen, replicate 2 | gene | PubChem SID |
| --- | --- | --- | --- |
| cell fragments present | – | eIF3g1 | SID104198219 |
| axon bundles split apart | – | ATPsynE | SID104195268 |
| reduced axon outgrowth | – | S-Lap5 | SID104186524 |
| axon bundles split apart | – | CG17575 | SID104186474 |
| sheet-like cell extensions | – | Lamp1 | SID104183519 |
| abnormal cell clusters | – | CG11362 | SID104183898 |
| axon bundles split apart | – | CG2291 | SID104186628 |
| too many neurite branches | – | CG9067 | SID104187120 |
| too many neurite branches | – | Ude | SID104195116 |
| abnormal cell clusters | – | Osi4 | SID104191926 |

Results, repeating the preview:
| phenotype seen, replicate 1 | phenotype seen, replicate 2 | gene | PubChem SID |
| --- | --- | --- | --- |
| cell fragments present | – | eIF3g1 | SID104198219 |
| axon bundles split apart | – | ATPsynE | SID104195268 |
| reduced axon outgrowth | – | S-Lap5 | SID104186524 |
| axon bundles split apart | – | CG17575 | SID104186474 |
| sheet-like cell extensions | – | Lamp1 | SID104183519 |
| abnormal cell clusters | – | CG11362 | SID104183898 |
| axon bundles split apart | – | CG2291 | SID104186628 |
| too many neurite branches | – | CG9067 | SID104187120 |
| too many neurite branches | – | Ude | SID104195116 |
| abnormal cell clusters | – | Osi4 | SID104191926 |
| reduced axon outgrowth | – | CG17048 | SID104186441 |
| reduced axon outgrowth | – | Ugt37A2 | SID104195653 |
| too many neurite branches | – | ND-B12 | SID104183852 |
| abnormal cell clusters | – | CG10950 | SID104185812 |
| reduced axon outgrowth | – | CG13323 | SID104186152 |
| reduced axon outgrowth | – | CG5157 | SID104190280 |
| abnormal cell clusters | – | CG2812 | SID104184111 |
| abnormal cell clusters | – | CG4829 | SID104199712 |
| abnormal cell clusters | – | CG4116 | SID104198140 |
| sheet-like cell extensions | – | dap | SID104187393 |
| axon bundles split apart | – | CG15005 | SID104188251 |
| reduced axon outgrowth | – | CG14562 | SID104191515 |
| beaded; swollen axons | – | CG6432 | SID104195831 |
| abnormal cell clusters | – | Hel89B | SID104196492 |
| abnormal cell clusters | – | CG34315 + Orc3 | SID104187434 |
| cell fragments present | – | CG12511 | SID104181963 |
| cell fragments present | – | Mocs1 | SID104191017 |
| too many neurite branches | – | RpL19 | SID104184441 |
| axon bundles split apart | – | RpS14a | SID104198502 |
| abnormal cell clusters | – | CG14440 | SID104197725 |
| too many neurite branches | – | svp | SID104195103 |
| too many neurite branches | – | RpS3A | SID104196960 |
| fewer cells | – | mRpS16 | SID104186944 |
| beaded; swollen axons | – | CG42729 | SID104190028 |
| too many neurite branches | – | Idgf2 | SID104183142 |
| too many neurite branches | – | Oatp58Da | SID104184157 |
| too many neurite branches | – | PAN3 | SID104187982 |
| fewer cells | – | siz | SID104191481 |
| abnormal cell clusters | – | Samuel | SID104182193 |
| too many neurite branches | cell fragments present | Samuel | SID104201402 |
| too many neurite branches | – | CG17107 | SID104182367 |
| sheet-like cell extensions | – | QIL1 | SID104190680 |
| cell fragments present | – | CG14036 | SID104182153 |
| too many neurite branches | – | CG14535 | SID104182185 |
| reduced axon outgrowth | – | ND-B14.5AL | SID104191587 |
| too many neurite branches | – | Polr3A | SID104199558 |
| abnormal cell clusters | – | Atxn7 | SID104180518 |
| sheet-like cell extensions | – | Ran | SID104200156 |
| beaded; swollen axons | – | mas | SID104188512 |
| beaded; swollen axons | – | Rbp | SID104195516 |
| reduced axon outgrowth | – | CG5913 | SID104195708 |
| too many neurite branches | – | CG5653 | SID104190326 |
| axon bundles split apart | – | RpL18 | SID104190808 |
| axon bundles split apart | – | RpL18 | SID104201824 |
| sheet-like cell extensions | – | Nlg4 | SID104195493 |
| cell fragments present | – | scramb1 | SID104190459 |
| axon bundles split apart | – | CG1428 | SID104183500 |
| reduced axon outgrowth | – | nau | SID104196803 |
| abnormal cell clusters | – | CG34001 | SID104188834 |
| too many neurite branches | – | Prx6c | SID104185872 |
| abnormal cell clusters | – | CG13895 | SID104188157 |
| axon bundles split apart | – | aPKC | SID104185307 |
| abnormal cell clusters | – | Obp50e | SID104186226 |
| axon bundles split apart | – | Jhbp14 | SID104181780 |
| axon bundles split apart | – | CG32547 | SID104199418 |
| fewer cells | – | CG5004 | SID104199721 |
| axon bundles split apart | – | CG5004 | SID104199722 |
| axon bundles split apart | – | CG5004 | SID104199915 |
| fewer cells | – | CG30096 | SID104201413 |
| fewer cells | – | sun | SID104199932 |
| sheet-like cell extensions | – | Cln3 | SID104190312 |
| axon bundles split apart | – | cv-c | SID104194765 |
| cell fragments present | – | CG8578 | SID104199906 |
| too many neurite branches | – | CG12126 | SID104185895 |
| too many neurite branches | – | pyx | SID104188303 |
| axon bundles split apart | – | CG6900 (retired record) | SID104199810 |
| fewer cells | – | CG42747 | SID104190001 |
| axon bundles split apart | – | CG7208 | SID104196004 |
| abnormal cell clusters | – | syd | SID104190755 |
| too many neurite branches | – | mgl | SID104197651 |
| sheet-like cell extensions | – | kl-3 (retired record) | SID104200683 |
| too many neurite branches | – | CG13488 | SID104183925 |
| abnormal cell clusters | – | TBPH | SID104184452 |
| abnormal cell clusters | – | mRpL52 | SID104186377 |
| abnormal cell clusters | – | upd3 | SID104199760 |
| beaded; swollen axons | – | CG5863 | SID104195690 |
| axon bundles split apart | – | Alg10 | SID104190684 |
| too many neurite branches | – | INPP5E | SID104189515 |
| too many neurite branches | – | Icmt | SID104189626 |
| too many neurite branches | – | GluRIB + CG42509 (retired record) | SID104190050 |
| sheet-like cell extensions | – | CG30062 | SID104201407 |
| reduced axon outgrowth | – | mbl | SID104186241 |
| abnormal cell clusters | – | mbl | SID104187443 |
| abnormal cell clusters | – | Or74a | SID104191037 |
| reduced axon outgrowth | – | CG1265 | SID104188080 |
| sheet-like cell extensions | – | Abp1 | SID104189485 |
| too many neurite branches | – | Shab | SID104187805 |
| axon bundles split apart | – | CG30026 | SID104185068 |
| too many neurite branches | – | CG31122 | SID104196078 |
| fewer cells | – | Six4 | SID104191673 |
| sheet-like cell extensions | – | HDAC4 | SID104199572 |
| too many neurite branches | – | PyK | SID104196598 |
| too many neurite branches | – | ScpX | SID104183222 |
| too many neurite branches | – | CG13801 | SID104188127 |
| cell fragments present | – | Cap-D2 | SID104195193 |
| too many neurite branches | – | stet | SID104188075 |
| too many neurite branches | – | Rnf11 | SID104201284 |
| axon bundles split apart | – | Syb | SID104187351 |
| axon bundles split apart | – | CG40498 | SID104187578 |
